Assay results published in the supplement of paper PMC4604168 (melanoma cell lines).
Some of the results follow. Repeats are few or missing, and single values can be far off.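 Cells were imaged in 1,536-well plates, and nuclei stained with an antibody against cleaved PARP were counted against all DNA-stained nuclei to give the apoptosis fraction. Screening doses were chosen to leave most cells alive, and resting and induced cleaved-PARP levels differ strongly between cell lines.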

Legend:
Assay in all cases: cleaved PARP positive nuclei fraction relative to DMSO control; melanoma cells; higher = more apoptosis
Settings in all cases: library dose: low library concentration; 72 h
501Mel = system: 501Mel
A101D = system: A101D
A2058 = system: A2058
A375 = system: A375
C32 = system: C32
CBRC008 = system: CBRC008 (line from a melanoma biopsy)
CBRC014 = system: CBRC014 (line from a melanoma biopsy)
CBRC016 = system: CBRC016 (line from a melanoma biopsy)
CBRC017 = system: CBRC017 (line from a melanoma biopsy)

Row | SMILES | cleaved PARP positive nuclei fraction (501Mel) [%] | cleaved PARP positive nuclei fraction (A101D) [%] | cleaved PARP positive nuclei fraction (A2058) [%] | cleaved PARP positive nuclei fraction (A375) [%] | cleaved PARP positive nuclei fraction (C32) [%] | cleaved PARP positive nuclei fraction (CBRC008) [%] | cleaved PARP positive nuclei fraction (CBRC014) [%] | cleaved PARP positive nuclei fraction (CBRC016) [%] | cleaved PARP positive nuclei fraction (CBRC017) [%]
1 | NC(=O)c1ccc(N(C(N)=O)c2c(F)cccc2F)nc1-c1ccc(F)cc1F + Clc1ccc(Nc2nnc(Cc3ccncc3)c3ccccc23)cc1 [vatalanib] (first compound 0.4 µM, partner dose 2 µM) | 104 | 112 | 97.7 | 193 | 72.4 | 64.7 | 102 | 110 | 87.5
2 | Cn1cnc2c(F)c(Nc3ccc(Br)cc3Cl)c(C(=O)NOCCO)cc21 [selumetinib] + C[C@]1(O)C[C@@H](c2nc(-c3ccc4ccc(-c5ccccc5)nc4c3)c3c(N)nccn32)C1 [OSI906] (first compound 0.015 µM, partner dose 0.4 µM) | 2550 | 118 | 105 | 620 | 79.6 | 48 | 111 | 73.6 | 134
3 | Cn1cnc2c(F)c(Nc3ccc(Br)cc3Cl)c(C(=O)NOCCO)cc21 [selumetinib] + CN(c1ncccc1CNc1nc(Nc2ccc3c(c2)CC(=O)N3)ncc1C(F)(F)F)S(C)(=O)=O [PF562271] (first compound 0.015 µM, partner dose 0.08 µM) | 337 | 101 | 186 | 138 | 120 | 75.9 | 98.9 | 239 | 126
4 | COc1ccc(C2=N[C@@H](c3ccc(Cl)cc3)[C@@H](c3ccc(Cl)cc3)N2C(=O)N2CCNC(=O)C2)c(OC(C)C)c1 [Nutlin-3] + CC(=O)c1c(C)c2cnc(Nc3ccc(N4CCNCC4)cn3)nc2n(C2CCCC2)c1=O [palbociclib] (first compound 0.1 µM, partner dose 0.04 µM) | 104 | 88.5 | 117 | 198 | 88.5 | 77.9 | 115 | 137 | 109
5 | NC(=O)c1ccc(N(C(N)=O)c2c(F)cccc2F)nc1-c1ccc(F)cc1F + C=CCNC1=C2C[C@@H](C)C[C@H](OC)[C@H](O)[C@@H](C)/C=C(\C)[C@H](OC(N)=O)[C@@H](OC)/C=C\C=C(/C)C(=O)NC(=CC1=O)C2=O [Tanespimycin] (first compound 0.4 µM, partner dose 0.002 µM) | 47.7 | 102 | 155 | 135 | 88.6 | 57.8 | 119 | 66.5 | 113
6 | Cn1cnc2c(F)c(Nc3ccc(Br)cc3Cl)c(C(=O)NOCCO)cc21 [selumetinib] + CS(=O)(=O)c1ccc(C(=O)Nc2ccc(Cl)c(-c3ccccn3)c2)c(Cl)c1 [vismodegib] (first compound 0.015 µM, partner dose 1 µM) | 308 | 43.5 | 124 | 105 | 63.6 | 100 | 108 | 122 | 137
7 | CS(=O)(=O)c1ccc(C(=O)Nc2ccc(Cl)c(-c3ccccn3)c2)c(Cl)c1 [vismodegib] + Cn1c(Nc2ccc(C(F)(F)F)cc2)nc2cc(Oc3ccnc(-c4ncc(C(F)(F)F)[nH]4)c3)ccc21 [CHIR265] (first compound 1 µM, partner dose 0.08 µM) | 1530 | 419 | 110 | 242 | 80 | 153 | 102 | 104 | 138
8 | Cn1cnc2c(F)c(Nc3ccc(Br)cc3Cl)c(C(=O)NOCCO)cc21 [selumetinib] + Nc1ccn([C@@H]2O[C@H](CO)[C@@H](O)C2(F)F)c(=O)n1 [gemcitabine] (first compound 0.015 µM, partner dose 0.0004 µM) | 1150 | 111 | 226 | 308 | 77.6 | 83.7 | 84.2 | 269 | 172
9 | C[C@]1(O)C[C@@H](c2nc(-c3ccc4ccc(-c5ccccc5)nc4c3)c3c(N)nccn32)C1 + Nc1cccc2c1CN(C1CCC(=O)NC1=O)C2=O [lenalidomide] (first compound 0.4 µM, partner dose 1 µM) | 95 | 133 | 230 | 317 | 188 | 51.3 | 114 | 47.7 | 78.8
10 | CN(c1ncccc1CNc1nc(Nc2ccc3c(c2)CC(=O)N3)ncc1C(F)(F)F)S(C)(=O)=O + Nc1nc(F)nc2c1ncn2[C@@H]1O[C@H](CO)[C@@H](O)[C@@H]1O [fludarabine] (first compound 0.08 µM, partner dose 0.2 µM) | 8360 | 154 | 82.1 | 1410 | 622 | 122 | 95.4 | 58.6 | 82.9
11 | NC(=O)c1ccc(N(C(N)=O)c2c(F)cccc2F)nc1-c1ccc(F)cc1F + CS(=O)(=O)CCNCc1ccc(-c2ccc3ncnc(Nc4ccc(OCc5cccc(F)c5)c(Cl)c4)c3c2)o1 [lapatinib] (first compound 0.4 µM, partner dose 0.8 µM) | 56.7 | 96.4 | 159 | 164 | 73.9 | 71.8 | 93.6 | 116 | 125
12 | CS(=O)(=O)c1ccc(C(=O)Nc2ccc(Cl)c(-c3ccccn3)c2)c(Cl)c1 [vismodegib] + CO[C@H]1C[C@@H]2CC[C@@H](C)[C@@](O)(O2)C(=O)C(=O)N2CCCC[C@H]2C(=O)O[C@H]([C@H](C)C[C@@H]2CC[C@@H](OCCO)[C@H](OC)C2)CC(=O)[C@H](C)/C=C(\C)[C@@H](O)[C@@H](OC)C(=O)[C@H](C)C[C@H](C)/C=C/C=C/C=C/1C [everolimus] (first compound 1 µM, partner dose 0.02 µM) | 386 | 118 | 181 | 798 | 90.9 | 119 | 102 | 94.4 | 219
13 | NC(=O)c1ccc(N(C(N)=O)c2c(F)cccc2F)nc1-c1ccc(F)cc1F + C[C@]1(O)C[C@@H](c2nc(-c3ccc4ccc(-c5ccccc5)nc4c3)c3c(N)nccn32)C1 [OSI906] (first compound 0.4 µM, partner dose 0.4 µM) | 200 | 138 | 221 | 191 | 80.2 | 156 | 92.4 | 140 | 123
14 | CN(c1ncccc1CNc1nc(Nc2ccc3c(c2)CC(=O)N3)ncc1C(F)(F)F)S(C)(=O)=O + C=C(c1ccc(C(=O)O)cc1)c1cc2c(cc1C)C(C)(C)CCC2(C)C [Bexarotene] (first compound 0.08 µM, partner dose 2 µM) | 61 | 88.9 | 138 | 249 | 98.4 | 110 | 105 | 50.6 | 118
15 | CCCCCCCCc1ccc(CCC(N)(CO)CO)cc1 [fingolimod] + NC1(c2ccc(-c3nc4ccn5c(=O)[nH]nc5c4cc3-c3ccccc3)cc2)CCC1 [MK2206] (first compound 2 µM, partner dose 0.4 µM) | 86.7 | 123 | 92.3 | 486 | 78 | 129 | 77.7 | 92.3 | 144
16 | NC1(c2ccc(-c3nc4ccn5c(=O)[nH]nc5c4cc3-c3ccccc3)cc2)CCC1 + CS(=O)(=O)CCNCc1ccc(-c2ccc3ncnc(Nc4ccc(OCc5cccc(F)c5)c(Cl)c4)c3c2)o1 [lapatinib] (first compound 0.4 µM, partner dose 0.8 µM) | 149 | 50.6 | 116 | 94.3 | 81.6 | 97.6 | 93.3 | 40.9 | 152
17 | CS(=O)(=O)c1ccc(C(=O)Nc2ccc(Cl)c(-c3ccccn3)c2)c(Cl)c1 [vismodegib] + C=CCNC1=C2C[C@@H](C)C[C@H](OC)[C@H](O)[C@@H](C)/C=C(\C)[C@H](OC(N)=O)[C@@H](OC)/C=C\C=C(/C)C(=O)NC(=CC1=O)C2=O [Tanespimycin] (first compound 1 µM, partner dose 0.002 µM) | 47.5 | 43.8 | 133 | 110 | 43.2 | 122 | 100 | 54.7 | 124
18 | CCN(CC)CCNC(=O)c1c(C)[nH]c(/C=C2\C(=O)Nc3ccc(F)cc32)c1C [sunitinib] + OCc1c[nH]c2ccccc12 [Indole-3-carbinol] (first compound 0.4 µM, partner dose 0.8 µM) | 143 | 155 | 81.4 | 128 | 123 | 98.9 | 90.7 | 73.7 | 105
19 | Cn1sc(=O)n(Cc2ccccc2)c1=O + C[C@]1(c2nc3c(C(N)=O)cccc3[nH]2)CCCN1 [Veliparib] (first compound 0.4 µM, partner dose 1.4 µM) | 35.5 | 148 | 192 | 104 | 65 | 47 | 97.2 | 23.2 | 68.2
20 | CCN(CC)CCNC(=O)c1c(C)[nH]c(/C=C2\C(=O)Nc3ccc(F)cc32)c1C [sunitinib] + COCC[n+]1c2c(n(Cc3cnccn3)c1C)C(=O)c1ccccc1C2=O [YM155] (first compound 0.4 µM, partner dose 0.0004 µM) | 77.4 | 159 | 93.8 | 157 | 95.2 | 93.4 | 182 | 166 | 96.5

Whole records from above. Values in the order: cleaved PARP positive nuclei fraction (501Mel) [%]	cleaved PARP positive nuclei fraction (A101D) [%]	cleaved PARP positive nuclei fraction (A2058) [%]	cleaved PARP positive nuclei fraction (A375) [%]	cleaved PARP positive nuclei fraction (C32) [%]	cleaved PARP positive nuclei fraction (CBRC008) [%]	cleaved PARP positive nuclei fraction (CBRC014) [%]	cleaved PARP positive nuclei fraction (CBRC016) [%]	cleaved PARP positive nuclei fraction (CBRC017) [%]
Cn1cnc2c(F)c(Nc3ccc(Br)cc3Cl)c(C(=O)NOCCO)cc21 [selumetinib] + C[C@]1(O)C[C@@H](c2nc(-c3ccc4ccc(-c5ccccc5)nc4c3)c3c(N)nccn32)C1 [OSI906] (first compound 0.015 µM, partner dose 0.4 µM) reads 2550	118	105	620	79.6	48	111	73.6	134
CN(c1ncccc1CNc1nc(Nc2ccc3c(c2)CC(=O)N3)ncc1C(F)(F)F)S(C)(=O)=O + C=C(c1ccc(C(=O)O)cc1)c1cc2c(cc1C)C(C)(C)CCC2(C)C [Bexarotene] (first compound 0.08 µM, partner dose 2 µM) reads 61	88.9	138	249	98.4	110	105	50.6	118
